Test results taken from the supplement of paper PMC10849652.
This is one part of the list.

The chains behind the UniProt entries cited, without tags or fusion partners. Where a name states a change or a piece, a line headed by the entry shows the natural chain unless it says otherwise.
UniProt Q9BV40: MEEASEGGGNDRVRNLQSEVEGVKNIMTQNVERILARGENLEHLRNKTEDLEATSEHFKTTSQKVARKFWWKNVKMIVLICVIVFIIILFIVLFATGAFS
UniProt P06132: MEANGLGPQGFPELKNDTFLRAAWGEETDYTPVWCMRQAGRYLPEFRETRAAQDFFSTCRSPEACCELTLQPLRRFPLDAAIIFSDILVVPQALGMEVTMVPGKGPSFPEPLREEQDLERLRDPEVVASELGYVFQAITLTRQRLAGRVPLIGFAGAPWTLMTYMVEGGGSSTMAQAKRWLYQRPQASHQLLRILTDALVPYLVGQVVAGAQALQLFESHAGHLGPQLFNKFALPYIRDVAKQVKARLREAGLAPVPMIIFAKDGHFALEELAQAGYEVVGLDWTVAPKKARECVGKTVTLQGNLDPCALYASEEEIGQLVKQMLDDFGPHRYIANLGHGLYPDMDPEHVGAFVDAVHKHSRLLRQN
UniProt P45974: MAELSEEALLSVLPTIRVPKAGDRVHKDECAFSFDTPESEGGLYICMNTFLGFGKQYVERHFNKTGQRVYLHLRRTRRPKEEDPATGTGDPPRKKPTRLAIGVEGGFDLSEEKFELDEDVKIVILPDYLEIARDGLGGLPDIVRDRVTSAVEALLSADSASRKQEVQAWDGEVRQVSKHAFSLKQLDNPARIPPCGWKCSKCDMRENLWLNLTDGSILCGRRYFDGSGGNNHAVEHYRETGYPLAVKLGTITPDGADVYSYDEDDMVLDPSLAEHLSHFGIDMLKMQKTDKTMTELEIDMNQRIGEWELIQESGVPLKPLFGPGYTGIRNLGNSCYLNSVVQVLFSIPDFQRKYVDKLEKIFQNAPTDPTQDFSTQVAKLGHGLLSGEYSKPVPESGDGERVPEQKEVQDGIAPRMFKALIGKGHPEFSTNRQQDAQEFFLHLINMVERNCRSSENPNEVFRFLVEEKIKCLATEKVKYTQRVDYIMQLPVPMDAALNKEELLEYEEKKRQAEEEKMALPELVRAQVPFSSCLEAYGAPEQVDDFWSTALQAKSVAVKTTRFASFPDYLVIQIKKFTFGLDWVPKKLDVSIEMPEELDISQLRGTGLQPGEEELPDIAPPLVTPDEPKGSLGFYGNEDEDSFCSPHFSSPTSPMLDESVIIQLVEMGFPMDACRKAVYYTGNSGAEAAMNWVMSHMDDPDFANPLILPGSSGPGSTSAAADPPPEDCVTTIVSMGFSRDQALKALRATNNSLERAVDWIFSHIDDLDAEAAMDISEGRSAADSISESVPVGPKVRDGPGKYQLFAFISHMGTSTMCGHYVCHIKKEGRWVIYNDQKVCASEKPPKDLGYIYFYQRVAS
UniProt Q8IX04: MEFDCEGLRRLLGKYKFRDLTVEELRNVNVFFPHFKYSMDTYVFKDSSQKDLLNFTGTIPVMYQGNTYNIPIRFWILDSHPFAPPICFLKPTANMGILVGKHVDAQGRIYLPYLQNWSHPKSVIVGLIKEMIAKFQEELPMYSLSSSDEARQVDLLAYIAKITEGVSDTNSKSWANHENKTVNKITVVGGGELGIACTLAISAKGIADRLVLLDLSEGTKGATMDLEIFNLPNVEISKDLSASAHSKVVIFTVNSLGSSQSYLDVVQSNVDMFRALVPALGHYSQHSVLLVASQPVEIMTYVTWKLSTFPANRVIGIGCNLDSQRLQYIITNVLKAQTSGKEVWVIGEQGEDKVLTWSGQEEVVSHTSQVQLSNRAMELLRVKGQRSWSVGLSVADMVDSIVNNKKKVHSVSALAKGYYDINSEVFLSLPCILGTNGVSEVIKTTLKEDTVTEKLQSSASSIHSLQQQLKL
UniProt P61960, whole entry, looked up: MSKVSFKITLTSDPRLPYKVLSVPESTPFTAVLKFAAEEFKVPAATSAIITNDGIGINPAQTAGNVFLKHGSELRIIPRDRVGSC
UniProt P26640: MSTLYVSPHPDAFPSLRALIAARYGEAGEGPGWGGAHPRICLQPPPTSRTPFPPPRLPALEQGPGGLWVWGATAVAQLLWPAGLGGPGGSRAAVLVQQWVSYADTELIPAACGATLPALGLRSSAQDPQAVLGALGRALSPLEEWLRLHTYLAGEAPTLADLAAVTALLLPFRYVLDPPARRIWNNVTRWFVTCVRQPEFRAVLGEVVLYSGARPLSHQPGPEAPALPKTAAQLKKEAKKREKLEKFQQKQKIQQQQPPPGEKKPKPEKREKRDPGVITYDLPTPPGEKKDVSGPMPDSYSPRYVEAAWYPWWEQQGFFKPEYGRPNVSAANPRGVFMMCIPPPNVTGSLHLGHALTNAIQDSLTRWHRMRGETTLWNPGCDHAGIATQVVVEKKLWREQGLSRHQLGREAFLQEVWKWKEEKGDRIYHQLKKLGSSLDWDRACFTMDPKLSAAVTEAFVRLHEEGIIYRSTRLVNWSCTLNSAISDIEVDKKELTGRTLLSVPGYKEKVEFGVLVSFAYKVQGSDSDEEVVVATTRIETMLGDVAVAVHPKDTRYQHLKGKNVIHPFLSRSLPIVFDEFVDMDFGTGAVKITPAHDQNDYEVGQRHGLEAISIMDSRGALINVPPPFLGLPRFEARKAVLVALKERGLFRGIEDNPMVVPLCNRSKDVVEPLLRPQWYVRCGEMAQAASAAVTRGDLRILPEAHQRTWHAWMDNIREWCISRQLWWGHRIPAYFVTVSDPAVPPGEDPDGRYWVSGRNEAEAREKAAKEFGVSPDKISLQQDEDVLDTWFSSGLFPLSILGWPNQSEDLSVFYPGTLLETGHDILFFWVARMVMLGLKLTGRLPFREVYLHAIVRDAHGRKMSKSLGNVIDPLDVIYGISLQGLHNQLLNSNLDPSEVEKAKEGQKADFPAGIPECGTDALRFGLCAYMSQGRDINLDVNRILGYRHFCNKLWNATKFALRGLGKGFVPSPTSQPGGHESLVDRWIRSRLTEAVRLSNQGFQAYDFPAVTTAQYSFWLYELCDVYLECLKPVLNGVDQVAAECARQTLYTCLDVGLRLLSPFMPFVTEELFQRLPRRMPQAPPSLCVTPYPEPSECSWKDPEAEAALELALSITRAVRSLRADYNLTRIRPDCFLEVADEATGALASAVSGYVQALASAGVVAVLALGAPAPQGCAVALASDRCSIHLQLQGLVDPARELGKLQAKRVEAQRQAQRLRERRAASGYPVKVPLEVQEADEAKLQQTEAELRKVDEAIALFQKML
UniProt Q92890: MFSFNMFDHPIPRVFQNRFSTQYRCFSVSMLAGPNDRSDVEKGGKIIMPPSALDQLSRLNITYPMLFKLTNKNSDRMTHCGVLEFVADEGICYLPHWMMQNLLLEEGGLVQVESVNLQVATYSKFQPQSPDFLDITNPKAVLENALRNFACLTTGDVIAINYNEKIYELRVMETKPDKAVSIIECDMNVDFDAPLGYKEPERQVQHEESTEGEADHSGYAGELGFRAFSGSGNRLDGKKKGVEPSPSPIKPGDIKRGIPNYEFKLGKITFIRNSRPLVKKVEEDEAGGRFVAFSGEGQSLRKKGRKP
UniProt Q9Y5T5, whole entry, looked up: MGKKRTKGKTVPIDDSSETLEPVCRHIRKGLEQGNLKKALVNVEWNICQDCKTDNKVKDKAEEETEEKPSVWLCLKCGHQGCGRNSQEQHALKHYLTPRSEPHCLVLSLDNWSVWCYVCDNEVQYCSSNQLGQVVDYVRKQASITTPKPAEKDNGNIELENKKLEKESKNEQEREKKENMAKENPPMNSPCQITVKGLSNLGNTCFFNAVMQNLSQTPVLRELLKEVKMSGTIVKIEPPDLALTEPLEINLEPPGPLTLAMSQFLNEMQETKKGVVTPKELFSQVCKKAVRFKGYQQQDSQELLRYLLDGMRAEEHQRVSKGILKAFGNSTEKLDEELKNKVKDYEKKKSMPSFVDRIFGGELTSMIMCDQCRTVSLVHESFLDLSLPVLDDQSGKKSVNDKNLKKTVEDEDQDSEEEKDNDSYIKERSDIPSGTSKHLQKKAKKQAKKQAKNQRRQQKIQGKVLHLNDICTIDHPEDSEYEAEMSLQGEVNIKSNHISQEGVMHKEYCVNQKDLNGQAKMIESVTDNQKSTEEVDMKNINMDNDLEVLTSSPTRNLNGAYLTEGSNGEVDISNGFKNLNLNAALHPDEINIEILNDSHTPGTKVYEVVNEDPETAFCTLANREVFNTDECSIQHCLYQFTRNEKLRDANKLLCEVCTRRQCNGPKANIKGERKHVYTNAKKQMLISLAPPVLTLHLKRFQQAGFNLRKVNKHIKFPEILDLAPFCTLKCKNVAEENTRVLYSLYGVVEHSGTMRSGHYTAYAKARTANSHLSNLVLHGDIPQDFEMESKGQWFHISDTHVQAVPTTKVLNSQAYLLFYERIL
UniProt Q9BRT2: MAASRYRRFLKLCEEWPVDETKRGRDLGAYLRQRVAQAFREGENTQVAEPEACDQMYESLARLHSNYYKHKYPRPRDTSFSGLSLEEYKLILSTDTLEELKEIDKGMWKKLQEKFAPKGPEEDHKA
UniProt Q8IZJ1, whole entry, looked up: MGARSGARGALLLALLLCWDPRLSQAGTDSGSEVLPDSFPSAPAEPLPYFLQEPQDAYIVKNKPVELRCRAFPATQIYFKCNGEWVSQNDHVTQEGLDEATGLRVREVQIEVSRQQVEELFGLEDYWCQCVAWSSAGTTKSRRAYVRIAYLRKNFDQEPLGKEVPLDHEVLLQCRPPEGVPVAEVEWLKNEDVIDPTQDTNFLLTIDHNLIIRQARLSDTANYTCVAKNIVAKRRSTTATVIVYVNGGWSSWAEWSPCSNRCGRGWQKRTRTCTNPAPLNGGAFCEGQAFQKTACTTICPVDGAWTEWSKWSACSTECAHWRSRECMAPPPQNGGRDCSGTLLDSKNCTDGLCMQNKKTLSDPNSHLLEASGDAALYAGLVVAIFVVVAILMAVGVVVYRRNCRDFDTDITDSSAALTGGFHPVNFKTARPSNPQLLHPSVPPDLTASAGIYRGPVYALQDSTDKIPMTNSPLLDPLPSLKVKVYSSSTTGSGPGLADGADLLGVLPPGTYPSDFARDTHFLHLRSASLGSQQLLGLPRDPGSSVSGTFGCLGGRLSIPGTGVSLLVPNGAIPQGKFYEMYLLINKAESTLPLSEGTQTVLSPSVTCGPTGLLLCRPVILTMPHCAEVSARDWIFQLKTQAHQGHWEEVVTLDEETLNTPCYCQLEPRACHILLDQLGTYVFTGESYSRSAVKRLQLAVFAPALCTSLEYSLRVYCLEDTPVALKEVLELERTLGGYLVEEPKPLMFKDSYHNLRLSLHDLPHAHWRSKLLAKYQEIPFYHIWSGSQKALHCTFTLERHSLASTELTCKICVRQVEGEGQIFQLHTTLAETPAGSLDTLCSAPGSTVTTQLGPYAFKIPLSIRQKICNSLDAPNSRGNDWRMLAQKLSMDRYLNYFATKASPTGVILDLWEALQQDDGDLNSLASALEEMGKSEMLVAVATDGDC
UniProt Q9UBK9, whole entry, looked up: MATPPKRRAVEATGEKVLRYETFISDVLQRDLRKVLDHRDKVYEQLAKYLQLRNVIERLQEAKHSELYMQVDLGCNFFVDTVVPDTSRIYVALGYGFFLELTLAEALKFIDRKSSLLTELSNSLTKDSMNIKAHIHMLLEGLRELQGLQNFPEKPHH
UniProt Q9C0B0: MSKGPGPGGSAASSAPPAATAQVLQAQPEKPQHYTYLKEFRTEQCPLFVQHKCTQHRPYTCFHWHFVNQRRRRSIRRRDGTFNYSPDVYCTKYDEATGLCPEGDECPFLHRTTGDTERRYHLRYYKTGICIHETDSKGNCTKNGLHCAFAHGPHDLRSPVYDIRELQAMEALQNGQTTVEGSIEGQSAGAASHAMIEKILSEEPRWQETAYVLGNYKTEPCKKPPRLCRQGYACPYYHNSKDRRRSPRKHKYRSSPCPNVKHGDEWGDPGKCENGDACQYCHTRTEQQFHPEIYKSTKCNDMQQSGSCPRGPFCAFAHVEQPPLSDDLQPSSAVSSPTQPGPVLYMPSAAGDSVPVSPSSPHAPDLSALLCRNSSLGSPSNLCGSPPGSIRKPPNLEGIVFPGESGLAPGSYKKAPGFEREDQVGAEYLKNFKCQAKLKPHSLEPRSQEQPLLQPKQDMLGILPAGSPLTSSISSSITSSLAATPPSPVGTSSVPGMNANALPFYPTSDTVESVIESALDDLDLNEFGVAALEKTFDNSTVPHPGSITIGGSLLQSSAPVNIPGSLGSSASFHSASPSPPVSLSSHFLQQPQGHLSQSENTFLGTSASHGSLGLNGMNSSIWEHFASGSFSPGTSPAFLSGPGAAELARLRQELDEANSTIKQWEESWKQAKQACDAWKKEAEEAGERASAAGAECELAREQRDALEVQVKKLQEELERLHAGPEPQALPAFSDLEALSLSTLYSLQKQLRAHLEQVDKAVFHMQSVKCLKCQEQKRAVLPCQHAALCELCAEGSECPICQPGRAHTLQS
UniProt P10746: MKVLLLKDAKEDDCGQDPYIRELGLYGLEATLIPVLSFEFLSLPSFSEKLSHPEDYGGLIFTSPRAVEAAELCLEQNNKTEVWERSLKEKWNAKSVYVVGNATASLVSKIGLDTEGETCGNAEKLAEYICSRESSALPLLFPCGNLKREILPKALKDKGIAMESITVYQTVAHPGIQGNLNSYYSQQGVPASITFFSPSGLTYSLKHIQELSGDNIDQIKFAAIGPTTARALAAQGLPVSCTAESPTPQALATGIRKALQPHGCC

What was measured:
Assay in all cases: log2 fold change, soluble protein after heating vs DMSO (PISA); higher = thermal stabilisation; K562 lysate, 10 uM; active = over 0.2 and 3.5 SD of the protein, either way, in both replicates (recomputed)
[1] = compound: C1=CC=C(C=C1)[C@H](COC2=CC3=C(C=C2)NC(=O)N3)NC(=O)C4=CC=CN(C4=O)CC5=CC(=C(C=C5)F)F
How it was run: (§1)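 A 30 min treatment with 10 μM compound was applied to crude K562 extract at 1 mg/mL protein in PBS pH 7.4 with 1 mM MgCl2. Heating for 3 min spanned 48°C-58°C, after which aliquots were pooled, adjusted to 0.5% NP-40 at 4°C and spun at 21,000xg for 90 min. TMTpro 16plex LC-MS/MS of the supernatant, with channel sums equalised, gave values recorded as log-two fold change in thermal stability against solvent controls, from duplicates.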

[2] = compound: CC1=C(SC2=C1C(=N[C@H](C3=NN=C(N32)C)CC(=O)N)C4=CC=C(C=C4)Cl)C
How it was run: as §1

[3] = compound: CC1=C2C(=CC=C1)N=C(N(C2=O)C3=CC=CC=C3C)CN4C=NC5=C(N=CN=C54)N
How it was run: as §1

[4] = compound: Cc1sc2c(c1C)C(c1ccc(Cl)cc1)=N[C@@H](CC(=O)OC(C)(C)C)c1nnc(C)n1-2
How it was run: as §1

[5] = compound: c1ccc([C@@H]2C[C@H]2NC2CCNCC2)cc1
How it was run: as §1

Measured: log2 fold change

VCPKMT (UniProt Q9H867)
inactive: [1] 0.011 | [2] 0.056

VAMP8 (UniProt Q9BV40)
inactive: [1] 0.037 | [2] -0.001 | [3] -0.002 | [4] -0.019 | [5] -0.007

UROD (UniProt P06132)
inactive: [1] 0.016 | [2] -0.04 | [3] -0.019 | [4] -0.018 | [5] -0.074

USP46 (UniProt P62068)
inactive: [1] 0.021 | [2] -0.121

USP7 (UniProt H3BND8)
inactive: [1] -0.405 | [2] 0.009

VAMP4 (UniProt O75379)
inactive: [1] 0.077 | [2] -0.06 | [3] -0.004 | [4] -0.038 | [5] -0.045

VAT1 (UniProt Q99536)
inactive: [1] 0.036 | [2] -0.025 | [3] -0.02 | [4] -0.022 | [5] -0.006

VDAC2 isoform 2 (UniProt P45880)
inactive: [1] 0.017 | [2] -0.002 | [3] -0.006 | [4] -0.017 | [5] -0.01

VCPIP1 (UniProt Q96JH7)
inactive: [1] -0.025 | [2] -0.008 | [3] 0.002 | [4] -0.052 | [5] -0.002

UNKL (UniProt E9PDK2)
inactive: [1] -0.025 | [2] 0.09 | [3] 0.249 | [4] 0.022

USP1 (UniProt O94782)
inactive: [1] 0.047 | [2] 0.009 | [3] 0.002 | [4] 0.009 | [5] 0.005

USF3 (UniProt Q68DE3)
inactive: [1] -0.104 | [2] 0.082

VAC14 (UniProt Q08AM6)
inactive: [1] -0.008 | [2] -0.008 | [3] 0.042 | [4] -0.012 | [5] 0.001

USP42 (UniProt Q9H9J4)
inactive: [1] -0.012 | [2] 0.072

USP24 (UniProt Q9UPU5)
inactive: [1] -0.032 | [2] -0.011 | [3] 0.002 | [4] 0.011 | [5] 0.026

USP34 (UniProt Q70CQ2)
inactive: [1] -0.002 | [2] -0.015 | [3] 0 | [4] -0.004 | [5] 0.073

UROD (UniProt H0Y5R6)
inactive: [1] -0.026 | [2] -0.082 | [3] 0.02

USP5 isoform 2 (UniProt P45974)
inactive: [1] 0.004 | [2] 0.002 | [3] 0.021 | [4] 0.001 | [5] -0.004

VAV1 (UniProt P15498)
inactive: [1] -0.025 | [2] 0.001 | [3] -0.011 | [4] -0.017 | [5] -0.068

UXS1 isoform 2 (UniProt Q8NBZ7)
inactive: [1] -0.029 | [2] -0.006 | [3] 0.01 | [4] 0.056 | [5] -0.045

UEVLD (UniProt Q8IX04)
inactive: [1] 0.021 | [2] -0.013 | [3] -0.057 | [4] 0.009 | [5] -0.012

UNC13D (UniProt Q70J99)
inactive: [1] -0.032 | [2] 0.067 | [3] 0.044 | [4] 0.025 | [5] 0.024

USP5 (UniProt F5H571)
inactive: [1] -0.039 | [2] 0.011

VAPB (UniProt O95292)
inactive: [1] 0.016 | [2] -0.03 | [3] 0.017 | [4] 0.053 | [5] -0.008

UFSP2 (UniProt Q9NUQ7)
inactive: [1] 0.059 | [2] 0 | [3] 0.057 | [4] -0.04 | [5] 0.022

UQCRC2 (UniProt P22695)
inactive: [1] 0.003 | [2] 0.037 | [3] -0.007 | [4] 0.006 | [5] -0.015

UVRAG (UniProt Q9P2Y5)
inactive: [1] -0.028 | [2] -0.029 | [3] -0.007 | [4] 0.06 | [5] -0.013

UFM1 (UniProt P61960)
inactive: [1] 0.015 | [2] -0.085 | [3] -0.103 | [4] -0.019 | [5] 0.297

UGCG (UniProt Q16739)
inactive: [1] -0.041 | [2] 0.053 | [3] 0.14 | [4] 0.018

URGCP (UniProt Q8TCY9)
inactive: [1] 0.003 | [2] 0.036 | [3] 0.044 | [4] 0.047

VARS2, A0A0G2JL52
inactive: [1] 0.01 | [2] 0.023 | [3] 0.041 | [4] 0.005 | [5] -0.023

VARS (UniProt P26640)
inactive: [1] -0.022 | [2] 0.013 | [3] 0.013 | [4] 0 | [5] 0.031

USP25 (UniProt Q9UHP3)
inactive: [1] -0.008 | [2] 0.013 | [3] 0.027 | [4] 0.013 | [5] 0.026

UFD1 isoform 1 (UniProt Q92890)
inactive: [1] 0.049 | [2] 0.012 | [3] -0.017 | [4] 0.007 | [5] -0.021

USP16 (UniProt Q9Y5T5)
inactive: [1] 0.047 | [2] -0.015 | [3] 0.011 | [4] 0.038 | [5] -0.002

VCP (UniProt P55072)
inactive: [1] 0.021 | [2] 0.008 | [3] -0.019 | [4] -0.023 | [5] 0.016

UQCC2 (UniProt Q9BRT2)
inactive: [1] 0.008 | [2] 0.019 | [3] -0.056 | [4] -0.057 | [5] 0.095

VANGL1 (UniProt Q8TAA9)
inactive: [1] 0.064 | [2] 0.088 | [3] -0.055 | [4] -0.004 | [5] -0.076

USF1 (UniProt P22415)
inactive: [1] -0.024 | [2] 0.037 | [3] 0.016 | [4] 0.002 | [5] -0.053

UQCC1 (UniProt Q9NVA1)
inactive: [1] 0.033 | [2] -0.009 | [3] -0.012 | [4] 0.011 | [5] 0.017

UQCRQ (UniProt O14949)
inactive: [1] 0.019 | [2] 0 | [3] -0.007 | [4] 0.033 | [5] -0.012

USP4 (UniProt Q13107)
inactive: [1] 0.015 | [2] 0.103 | [3] 0.009 | [4] -0.001 | [5] 0.056

VAMP2 (UniProt P63027)
inactive: [1] -0.045 | [2] -0.053 | [3] -0.024 | [4] 0.014 | [5] 0.081

UTP6 (UniProt Q9NYH9)
inactive: [1] -0.087 | [2] 0.063 | [3] 0.044 | [4] 0.02 | [5] 0.108

UTP14A (UniProt Q9BVJ6)
inactive: [1] 0.017 | [2] 0.004 | [3] 0.035 | [4] -0.037 | [5] -0.024

UNC5B (UniProt Q8IZJ1)
inactive: [1] -0.028 | [2] -0.042 | [3] 0.13 | [4] -0.049 | [5] 0.184

Looked up one by one from above (two):
VAMP2 (UniProt P63027)
inactive: [1] -0.045 | [2] -0.053 | [3] -0.024 | [4] 0.014 | [5] 0.081

USP34 (UniProt Q70CQ2)
inactive: [1] -0.002 | [2] -0.015 | [3] 0 | [4] -0.004 | [5] 0.073

The list continues.

UTP15 (UniProt Q8TED0)
inactive: [1] -0.021 | [2] -0.035 | [3] 0.01 | [4] -0.009 | [5] 0.011

UGGT1 (UniProt Q9NYU2)
inactive: [1] 0.013 | [2] 0.021 | [3] -0.005 | [4] 0.017 | [5] 0.018

VAPA (UniProt Q9P0L0)
inactive: [1] -0.031 | [2] -0.035 | [3] 0.003 | [4] 0.124 | [5] 0.085

UXT isoform 2 (UniProt Q9UBK9)
inactive: [1] 0.033 | [2] 0.026 | [3] 0.008 | [4] -0.053 | [5] -0.071

URI1 (UniProt O94763)
inactive: [1] -0.004 | [2] -0.002 | [3] 0.009 | [4] 0.013 | [5] 0.02

USP3 (UniProt Q9Y6I4)
inactive: [1] 0.026 | [2] 0.006 | [3] -0.056 | [4] -0.044 | [5] 0.073

USP11 (UniProt P51784)
inactive: [1] -0.04 | [2] -0.079 | [3] 0.013 | [4] 0.009 | [5] -0.036

UNK (UniProt Q9C0B0)
inactive: [1] -0.003 | [2] -0.021 | [3] -0.024 | [4] -0.028 | [5] -0.044

UROS (UniProt P10746)
inactive: [1] -0.04 | [2] 0.004 | [3] 0.036 | [4] 0.059 | [5] 0.048

USP8 (UniProt P40818)
inactive: [1] -0.018 | [2] 0.016 | [3] 0.01 | [4] 0.009 | [5] 0.036

USP15 (UniProt Q9Y4E8)
inactive: [1] 0.007 | [2] 0.008 | [3] 0.017 | [4] 0.016 | [5] 0.014
